Reference: article PMC3968158
Results are given in words; binding and its absence hold for the method and conditions named. In cells and extracts the contact can be indirect. Some binding calls cover weakened binding; strength is not graded here.

Amino acid sequences for entries named in this document (tags omitted). A change or cut given only in a name is not applied to a line headed by its entry. Residues count along the entry.
UniProt B7UM99: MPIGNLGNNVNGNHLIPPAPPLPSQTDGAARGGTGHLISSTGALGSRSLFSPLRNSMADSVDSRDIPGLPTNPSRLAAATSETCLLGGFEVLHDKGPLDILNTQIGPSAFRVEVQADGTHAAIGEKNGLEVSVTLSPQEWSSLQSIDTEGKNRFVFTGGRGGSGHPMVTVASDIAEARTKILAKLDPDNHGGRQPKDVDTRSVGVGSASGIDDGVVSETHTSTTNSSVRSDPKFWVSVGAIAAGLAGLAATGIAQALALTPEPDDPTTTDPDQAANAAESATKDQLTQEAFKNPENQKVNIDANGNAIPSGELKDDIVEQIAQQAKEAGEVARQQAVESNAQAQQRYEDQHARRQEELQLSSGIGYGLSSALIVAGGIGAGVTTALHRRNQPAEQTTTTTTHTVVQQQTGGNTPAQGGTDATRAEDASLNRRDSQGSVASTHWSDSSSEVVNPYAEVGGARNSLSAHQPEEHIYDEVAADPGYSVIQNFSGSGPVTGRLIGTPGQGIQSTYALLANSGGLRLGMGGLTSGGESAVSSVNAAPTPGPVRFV
UniProt P46108, residues 1-124: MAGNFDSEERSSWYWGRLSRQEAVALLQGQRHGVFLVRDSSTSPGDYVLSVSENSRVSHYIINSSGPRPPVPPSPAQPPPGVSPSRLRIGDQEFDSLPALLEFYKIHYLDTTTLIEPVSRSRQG
UniProt P46109, residues 9-108: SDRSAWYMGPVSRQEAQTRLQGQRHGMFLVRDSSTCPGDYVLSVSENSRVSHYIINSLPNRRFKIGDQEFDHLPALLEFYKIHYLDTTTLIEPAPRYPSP

How the values were obtained:
[1] = biological target: Tir (translocated intimin receptor) of enteropathogenic Escherichia coli E2348/69, tyrosine-phosphorylated in infected HeLa cells (enteropathogenic Escherichia coli (EPEC) E2348/69) (UniProt B7UM99); test: pull-down; competitive pull-down: increasing amounts of soluble purified CrkII SH2 domain added to lysates of EPEC-infected HeLa cells (2 h, 4°C) before pull-down of Tir with GST-SH2 Nck; binding to Tir read as loss of Tir from the Nck SH2 beads; only the binder purified
[2] = biological target: GST-tagged SH2 domain of CrkII (residues 1-124) (UniProt P46108); test: pull-down; GST fusion proteins on GSH beads incubated 5 h at 4°C with 150 μl lysate (modified RIPA buffer) of HeLa cells infected with preactivated EPEC (MOI 180, 1 or 2 h; MOI 150, 2 h for Δtir + ptir or ptirY474F); washed four times; WB with anti-Tir and anti-phosphotyrosine antibodies; only the target purified
[3] = biological target: GST-tagged SH2 domain of CrkL (residues 9-108) (UniProt P46109); test: as above

| Substance | binding [1] | binding [2] | binding [3] |
| --- | --- | --- | --- |
| Recombinant soluble CrkII SH2 domain excised from GST-SH2 CrkII with PreScission protease (from UniProt P46108-1 1-124) (domain or fragment) | binds |  |  |
| Tir (translocated intimin receptor) of enteropathogenic Escherichia coli E2348/69, tyrosine-phosphorylated in infected HeLa cells (from UniProt B7UM99 1-550) |  | binds | binds |
